No constants are given. Whether binding was seen depends on the method and setting. In cells and extracts the contact can be indirect. Some results given as binding are weak or reduced against the parent protein; the word gives no strength.
Molecular target: c-Jun (mouse (endogenous in BMDMs)) (UniProt P05627)
Assay: co-IP; endogenous proteins in lysates of mouse BMDMs stimulated with IL-4 for indicated hours; immunoprecipitation and immunoblot by a standard protocol (ref. 35); which protein was precipitated is not told

Sequences of proteins named here, by UniProt entry; tags and fusion partners are left off.
UniProt P05627: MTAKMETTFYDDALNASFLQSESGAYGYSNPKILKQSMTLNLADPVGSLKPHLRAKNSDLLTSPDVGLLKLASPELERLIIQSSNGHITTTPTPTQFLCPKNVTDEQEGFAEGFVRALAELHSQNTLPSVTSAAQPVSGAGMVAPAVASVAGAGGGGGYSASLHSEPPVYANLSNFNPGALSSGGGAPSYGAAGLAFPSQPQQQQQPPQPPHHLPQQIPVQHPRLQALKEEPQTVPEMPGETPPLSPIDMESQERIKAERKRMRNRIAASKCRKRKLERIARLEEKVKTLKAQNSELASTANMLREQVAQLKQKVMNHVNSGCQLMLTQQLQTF
UniProt Q8VBV4: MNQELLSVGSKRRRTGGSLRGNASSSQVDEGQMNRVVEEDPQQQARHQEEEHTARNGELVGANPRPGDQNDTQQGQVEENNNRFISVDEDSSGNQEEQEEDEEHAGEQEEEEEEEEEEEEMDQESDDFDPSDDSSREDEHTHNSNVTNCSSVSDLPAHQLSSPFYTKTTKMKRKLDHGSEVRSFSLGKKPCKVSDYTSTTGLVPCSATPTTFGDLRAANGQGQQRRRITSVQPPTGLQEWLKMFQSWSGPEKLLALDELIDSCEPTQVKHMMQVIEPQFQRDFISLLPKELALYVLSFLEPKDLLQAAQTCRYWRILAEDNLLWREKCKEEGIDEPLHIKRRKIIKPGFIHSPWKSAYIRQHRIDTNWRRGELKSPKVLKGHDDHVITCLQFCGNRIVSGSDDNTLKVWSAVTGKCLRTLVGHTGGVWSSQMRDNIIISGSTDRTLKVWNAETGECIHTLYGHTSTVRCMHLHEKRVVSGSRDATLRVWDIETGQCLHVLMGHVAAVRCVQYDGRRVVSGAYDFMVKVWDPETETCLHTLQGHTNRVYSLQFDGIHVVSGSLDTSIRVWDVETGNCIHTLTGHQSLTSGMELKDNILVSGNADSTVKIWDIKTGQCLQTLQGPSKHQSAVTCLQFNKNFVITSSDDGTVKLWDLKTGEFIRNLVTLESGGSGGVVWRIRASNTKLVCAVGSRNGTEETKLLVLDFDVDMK

## F-box and WD repeat domain-containing 7 (Fbxw7) (from UniProt Q8VBV4 1-710)
  binding: binds

From PMC8767095
